Numbering of substitutions follows the chain as printed. These are yes or no findings as the source states them, for the method shown. For some of these results: In cells and extracts the contact can be indirect. Some results given as binding are weak or reduced against the parent protein; the word gives no strength. Where a sequence is shown, tags or fusion partners need not be part of it. Each block holds one binder with its values, some of them ahead of it.
Experiments:
[1] = molecular target: normal OsphyC (OsphyC-w), yeast two-hybrid fusion (rice) (UniProt Q10CQ8); assay: two-hybrid; pGBKT7 and pGADT7 fusions co-transformed into yeast AH109; growth on SD/-Ade/-His/-Trp/-Leu for 3-4 days at 30 C; 5 mM 3-AT added to the selection medium to detect the strength of the interaction
[2] = molecular target: T1, OsphyB, yeast two-hybrid fusion (rice) (UniProt Q10MG9); assay: as above
T1 sequence: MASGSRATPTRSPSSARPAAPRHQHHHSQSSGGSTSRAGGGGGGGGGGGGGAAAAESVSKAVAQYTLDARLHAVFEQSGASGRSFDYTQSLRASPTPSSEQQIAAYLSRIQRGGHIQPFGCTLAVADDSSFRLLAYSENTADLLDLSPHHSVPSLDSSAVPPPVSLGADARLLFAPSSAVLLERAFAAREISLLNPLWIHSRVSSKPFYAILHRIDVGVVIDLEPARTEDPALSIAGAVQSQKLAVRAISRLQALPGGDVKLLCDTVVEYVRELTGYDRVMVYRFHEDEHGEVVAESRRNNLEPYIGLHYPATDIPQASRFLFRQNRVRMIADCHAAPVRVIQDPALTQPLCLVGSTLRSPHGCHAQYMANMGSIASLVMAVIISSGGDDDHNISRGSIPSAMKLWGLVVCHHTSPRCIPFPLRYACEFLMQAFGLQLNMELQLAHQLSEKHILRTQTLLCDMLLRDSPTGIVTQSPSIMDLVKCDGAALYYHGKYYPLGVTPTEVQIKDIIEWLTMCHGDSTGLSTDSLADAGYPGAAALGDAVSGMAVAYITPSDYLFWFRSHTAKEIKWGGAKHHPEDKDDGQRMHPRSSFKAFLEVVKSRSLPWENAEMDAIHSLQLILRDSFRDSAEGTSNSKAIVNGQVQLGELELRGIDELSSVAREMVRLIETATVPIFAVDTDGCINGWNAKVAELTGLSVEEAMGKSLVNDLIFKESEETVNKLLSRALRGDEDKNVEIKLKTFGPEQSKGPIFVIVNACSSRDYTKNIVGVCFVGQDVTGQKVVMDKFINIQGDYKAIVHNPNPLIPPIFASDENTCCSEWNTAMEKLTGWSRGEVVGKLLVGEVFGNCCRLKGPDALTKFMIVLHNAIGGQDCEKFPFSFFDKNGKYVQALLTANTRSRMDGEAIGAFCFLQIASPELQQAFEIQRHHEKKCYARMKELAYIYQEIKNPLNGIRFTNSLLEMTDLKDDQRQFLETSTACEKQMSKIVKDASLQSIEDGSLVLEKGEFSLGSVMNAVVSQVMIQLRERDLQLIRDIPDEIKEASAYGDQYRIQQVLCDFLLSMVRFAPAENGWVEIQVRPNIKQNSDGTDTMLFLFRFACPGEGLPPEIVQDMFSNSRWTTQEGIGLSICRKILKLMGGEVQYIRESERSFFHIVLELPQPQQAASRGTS

[3] = molecular target: T2, OsphyC-w, BiFC fusions (OsphyC-w-NYFP and CYFP-OsphyC-w) (rice), Q10CQ8; assay: split reporter; BiFC: NYFP and CYFP fusions (35S promoter) co-expressed in N. benthamiana pavement cells by agroinfiltration; confocal microscopy 48-72 h after infiltration; conditions: remark: other sources report otherwise
T2 chain: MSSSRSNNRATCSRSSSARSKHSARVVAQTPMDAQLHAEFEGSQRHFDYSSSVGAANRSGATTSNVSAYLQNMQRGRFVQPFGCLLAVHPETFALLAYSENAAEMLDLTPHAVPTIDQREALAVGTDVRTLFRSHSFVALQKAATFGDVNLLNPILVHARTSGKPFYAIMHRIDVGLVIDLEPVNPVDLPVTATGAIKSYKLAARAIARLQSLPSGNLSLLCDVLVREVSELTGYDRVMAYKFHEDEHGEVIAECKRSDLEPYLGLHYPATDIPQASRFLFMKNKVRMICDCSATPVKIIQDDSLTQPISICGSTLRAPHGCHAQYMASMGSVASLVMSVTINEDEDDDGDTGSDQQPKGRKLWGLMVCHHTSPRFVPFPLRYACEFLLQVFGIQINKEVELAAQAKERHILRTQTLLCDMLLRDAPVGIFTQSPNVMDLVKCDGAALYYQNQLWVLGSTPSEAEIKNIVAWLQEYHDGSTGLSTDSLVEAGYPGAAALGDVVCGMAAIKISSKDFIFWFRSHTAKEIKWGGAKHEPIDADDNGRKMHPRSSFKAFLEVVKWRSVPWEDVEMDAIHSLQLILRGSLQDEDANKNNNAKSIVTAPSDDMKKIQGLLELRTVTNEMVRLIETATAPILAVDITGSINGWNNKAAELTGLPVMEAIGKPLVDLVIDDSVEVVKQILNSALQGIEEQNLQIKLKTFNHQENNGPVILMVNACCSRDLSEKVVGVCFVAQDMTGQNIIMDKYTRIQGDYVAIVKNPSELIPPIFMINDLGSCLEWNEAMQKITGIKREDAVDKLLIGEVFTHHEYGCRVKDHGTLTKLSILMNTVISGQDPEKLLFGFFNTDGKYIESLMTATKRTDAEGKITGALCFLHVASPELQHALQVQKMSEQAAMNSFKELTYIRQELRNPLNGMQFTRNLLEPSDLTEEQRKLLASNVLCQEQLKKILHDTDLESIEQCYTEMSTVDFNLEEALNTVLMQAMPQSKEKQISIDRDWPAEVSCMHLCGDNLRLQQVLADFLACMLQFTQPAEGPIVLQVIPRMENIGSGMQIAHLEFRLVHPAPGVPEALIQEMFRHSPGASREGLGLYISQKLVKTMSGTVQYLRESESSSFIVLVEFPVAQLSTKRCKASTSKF

[4] = molecular target: T3, OsphyC-w, BiFC fusions (OsphyC-w-NYFP and CYFP-OsphyC-w) (rice) (UniProt Q10CQ8); assay: as above
T3 sequence: T2 chain

CYFP-OsphyB (rice) = molecular target: T4, CYFP-OsphyB (rice) (UniProt Q10MG9); assay: as above
T4 sequence: T1 sequence

[5] = molecular target: mutational OsphyC (OsphyC-m), yeast two-hybrid fusion (rice) (UniProt Q10CQ8); assay: two-hybrid; pGBKT7 and pGADT7 fusions co-transformed into yeast AH109; growth on SD/-Ade/-His/-Trp/-Leu for 3-4 days at 30 C; 5 mM 3-AT added to the selection medium to detect the strength of the interaction

binding [1]: binds weakly
binding [2]: binds
B1: normal OsphyC (OsphyC-w), yeast two-hybrid fusion (protein, UniProt Q10CQ8 1-1137)
chain: T2 chain

binding [3]: binds
B2: OsphyC-w, BiFC fusions (OsphyC-w-NYFP and CYFP-OsphyC-w), Q10CQ8 1-1137 (protein)
chain: T2 chain

binding [4]: no binding
binding (CYFP-OsphyB (rice)): no binding
B3: OsphyC-m-NYFP (protein, UniProt Q10CQ8 1-1137)
chain: T2 chain with S577T

binding (CYFP-OsphyB (rice)): binds
B4: OsphyC-w, BiFC fusions (OsphyC-w-NYFP and CYFP-OsphyC-w) (protein, UniProt Q10CQ8 1-1137)
chain: T2 chain

binding [5]: no binding
B5: mutational OsphyC (OsphyC-m), yeast two-hybrid fusion (protein, UniProt Q10CQ8 1-1137)
chain: T2 chain with S577T
